Literature values, collected in US8324280B2, “Treatment of prostate cancer with DDC inhibitor” (The University of British Columbia, priority 2008, dated 2012).
At least one structure is not confirmed: it was looked up by name or label, or the drawing left a doubt.

Tested on: AR
Details: prostate cancer cells; cited from earlier work

CC(O)(CS(=O)(=O)c1ccc(F)cc1)C(=O)Nc1ccc(C#N)c(C(F)(F)F)c1 (stereo not shown) [bicalutamide]
effect on DDC enhancement of AR transactivation: antagonized
